# From patent US11471394B2, “Oral care compositions containing deoxy sugar antimetabolites” (Colgate-Palmolive Company, priority 2013, dated 2022)
# System: biofilm of five representative oral bacterial species: A. viscosus, L. casei, S. oralis, V. parvula and F. nucleatum
# Assay: Example 1: healthy biofilm formation on saliva-coated HAP disks (absorbance at 610 nm after trypsin)
# Format: cell-based
# Conditions: compound 0.01 wt. %
# Protocol: 0.5″ Ca^2+-deficient hydroxyapatite (HAP) disks were coated with UV-sterilized human saliva overnight.
# After 1 hour, excess treatment was removed by aspiration and disks were inoculated with 1 ml of bacteria from a continuous culture system at an OD(600) of about 0.2. The continuous culture system was maintained for approximately three months at 37° C. and contained five representative oral bacterial species: A. viscosus, L. casei, S. oralis, V. parvula and F. nucleatum. Previous work has shown this mix to form repeatable biofilms that can serve as a representation of the more complex mix of 500-700 bacterial species found in dental plaque.
# The inoculated scHAP disks were incubated for 48 hours at 37° C. to allow a biofilm to form on them. After 48 hours of biofilm formation, disks were transferred to test tubes containing 1 ml of 0.25% trypsin solution. Disks were incubated at 37° C. with shaking for 45 minutes. The tubes were briefly vortexed to resuspend the bacteria, and the supernatants were then transferred to a fresh 24 well plate. Plates were […] for 2 minutes to pellet any residual HAP flakes and the supernatants were removed to fresh plates so that their absorbance could be measured at 610 nm. All samples were tested in triplicate and the average of the three wells was determined.
smiles,measurement,setting,value
"CCCCCCCCCCCCCCCC[n+]1ccccc1 [CPC, cetylpyridinium chloride, reference compound]",% biofilm inhibition (B),"48 hours biofilm, reduction in absorbance relative to disks treated with media alone",32.69%
same,% biofilm inhibition efficiency (C),C=B/A×100%,50.00%
